Laboratory results from patent publication US9969979B2, “Methods for producing cells having a phenotype of a primary human hepatocytes and compositions” (The Governors of the University of Alberta, priority 2012, dated 2018).
Some results were stated once for a whole list of compounds, not compound by compound.

Tested on: Huh7.5 cells
Test: Growth arrest of Huh7.5 cells under other culture conditions
Assay type: cell-based, human
Details: 1% or 2% DMSO in DMEM/10% FBS, or 2-10% ABS in DMEM

C[S+](C)[O-] [DMSO, dimethyl sulfoxide]
time to growth arrest: ≤ 7 days
